Assay results from patent US12195506B2, “Immunotherapy with A*01 restricted peptides and combination of peptides against cancers and related methods” (Immatics Biotechnologies GmbH, priority 2018, dated 2025).

system: HLA molecules of primary tumors and normal tissue samples; test: Identification and relative quantitation of HLA ligands by LC-MS (peptide presentation on tumor versus normal tissue); design: species or system human; details: cancer entities on which the peptide was found presented (HLA ligands, LC-MS); abbreviations as in title of Table 8

Substance | Peptide Presentation on cancer entities
258 (RPSSVLTIY; listed as Homo sapiens) [compound 258] | GBM, MEL, NSCLCsquam
259 (APDEVVALL; listed as Homo sapiens) [compound 259] | MEL
260 (KPTEDSANVY; listed as Homo sapiens) [compound 260] | OSCAR
261 (MTEGSTVNTEY; listed as Homo sapiens) [compound 261] | GBC, GC
263 (DCMDTEGSYM; listed as Homo sapiens) [compound 263] | UEC
267 (IVADDTVY; listed as Homo sapiens) [compound 267] | NSCLCadeno, NSCLCother
269 (LPSPAATIWDY; listed as Homo sapiens) [compound 269] | GBC
270 (DLKIDLAAQY; listed as Homo sapiens) [compound 270] | OSCAR
271 (VAEPPVVCSY; listed as Homo sapiens) [compound 271] | HCC
272 (IPQDECLRY; listed as Homo sapiens) [compound 272] | GBC, HNSCC
273 (CGPNEINHFY; listed as Homo sapiens) [compound 273] | NSCLCsquam
274 (YADIHGDLL; listed as Homo sapiens) [compound 274] | RCC
275 (ESDEMENLLTY; listed as Homo sapiens) [compound 275] | BRCA
277 (LPAPGFLFY; listed as Homo sapiens) [compound 277] | GBC
278 (AATVKSDIY; listed as Homo sapiens) [compound 278] | NSCLCsquam
279 (LMTVLLKY; listed as Homo sapiens) [compound 279] | BRCA
282 (QAMPSWPTAAY; listed as Homo sapiens) [compound 282] | NSCLCsquam
283 (ETILVSSSY; listed as Homo sapiens) [compound 283] | NSCLCadeno
284 (TCSHTFVYY; listed as Homo sapiens) [compound 284] | NSCLCadeno, SCLC
285 (VLPHHSEGACVY; listed as Homo sapiens) [compound 285] | NSCLCadeno, OC
286 (ATDMEGNLNY; listed as Homo sapiens) [compound 286] | BRCA, GBM, NSCLCadeno
287 (ENSIEDLQY; listed as Homo sapiens) [compound 287] | HCC
289 (YTSHEDIGY; listed as Homo sapiens) [compound 289] | NSCLCadeno
290 (GQFTGTAGACRY; listed as Homo sapiens) [compound 290] | NSCLCadeno, OC
291 (TSDVTGSLTY; listed as Homo sapiens) [compound 291] | NSCLCother
294 (MMEMEGMY; listed as Homo sapiens) [compound 294] | NSCLCsquam

Substance | Peptide Presentation on cancer entities
296 (HMLAAMAY; listed as Homo sapiens) [compound 296] | BRCA, MEL, NHL, NSCLCadeno, NSCLCother, NSCLCsquam, OC, RCC
297 (RLDEAMISY; listed as Homo sapiens) [compound 297] | UBC
298 (KFDVINHYF; listed as Homo sapiens) [compound 298] | BRCA
299 (EVDSVALSL; listed as Homo sapiens) [compound 299] | MEL
301 (ESQTCASDY; listed as Homo sapiens) [compound 301] | GBC, NSCLCother
302 (FYLSTPENYHY; listed as Homo sapiens) [compound 302] | BRCA
303 (GFGGLSSQGVYY; listed as Homo sapiens) [compound 303] | CCC, HNSCC
304 (FSENLIYTYI; listed as Homo sapiens) [compound 304] | MEL
306 (KSFETTVRY; listed as Homo sapiens) [compound 306] | MEL, OSCAR
307 (DTDDRELRY; listed as Homo sapiens) [compound 307] | GBM, HCC, UEC
308 (ELAAGQVVY; listed as Homo sapiens) [compound 308] | CLL, OSCAR
309 (EVDRNLIQY; listed as Homo sapiens) [compound 309] | UEC
311 (TVTDGTHTDFY; listed as Homo sapiens) [compound 311] | NSCLCsquam
312 (VTDGINPLI; listed as Homo sapiens) [compound 312] | OSCAR
313 (VTDGTHTDFY; listed as Homo sapiens) [compound 313] | MEL
314 (PPEANSLQGALY; listed as Homo sapiens) [compound 314] | CCC, OC
316 (YTCEECGQAF; listed as Homo sapiens) [compound 316] | BRCA, GBM, GC, HCC, HNSCC, NHL, NSCLCadeno, NSCLCsquam, OSCAR, PACA, UEC
317 (EDLLEVLDMY; listed as Homo sapiens) [compound 317] | UEC
318 (YMTSMALNY; listed as Homo sapiens) [compound 318] | NSCLCsquam
319 (FTDPHIITF; listed as Homo sapiens) [compound 319] | BRCA
320 (QALQDKLQTFY; listed as Homo sapiens) [compound 320] | BRCA
321 (DGIADASNLSYY; listed as Homo sapiens) [compound 321] | MEL, NSCLCadeno, NSCLCsquam
322 (FSELNPLALY; listed as Homo sapiens) [compound 322] | GC, HNSCC, NSCLCsquam, OSCAR
323 (KTLQKPVLPLY; listed as Homo sapiens) [compound 323] | CLL
324 (RTGIFPYRF; listed as Homo sapiens) [compound 324] | GBC
325 (LQKPVLPLY; listed as Homo sapiens) [compound 325] | CLL, NSCLCsquam

Substance | Peptide Presentation on cancer entities
326 (STSRLTLFS; listed as Homo sapiens) [compound 326] | GBM, HNSCC
327 (IMLSVDQHLY; listed as Homo sapiens) [compound 327] | HNSCC, MEL
329 (NTDSMTLNNTAY; listed as Homo sapiens) [compound 329] | BRCA, GBC, HNSCC, NSCLCadeno, NSCLCsquam, OSCAR, UBC
331 (YLYQAPGSLALY; listed as Homo sapiens) [compound 331] | NSCLCadeno
333 (LSDPQAELQFY; listed as Homo sapiens) [compound 333] | GBM
334 (PSSMPECLSY; listed as Homo sapiens) [compound 334] | NSCLCsquam
335 (PSSMPECLSYY; listed as Homo sapiens) [compound 335] | NSCLCadeno
337 (FTESNQYNIY; listed as Homo sapiens) [compound 337] | BRCA, MEL, NSCLCadeno, NSCLCsquam
338 (YSPDSFNVSW; listed as Homo sapiens) [compound 338] | OSCAR
339 (ESMDIFPLGW; listed as Homo sapiens) [compound 339] | HNSCC, OC, OSCAR
340 (SVDSNLVAY; listed as Homo sapiens) [compound 340] | NSCLCadeno
341 (PANYLGKMTY; listed as Homo sapiens) [compound 341] | MEL, NSCLCadeno, OC, PRCA
343 (YFGNYFTYY; listed as Homo sapiens) [compound 343] | BRCA
344 (AVNALQSVY; listed as Homo sapiens) [compound 344] | AML, GBC, GBM, GC, NSCLCadeno, NSCLCother, NSCLCsquam, OC, PACA, PRCA, UEC
346 (VAGLEAGVLY; listed as Homo sapiens) [compound 346] | BRCA, GBM, HCC, MEL, OC, UBC, UEC
347 (SADHPGLTF; listed as Homo sapiens) [compound 347] | CRC
350 (LTDPQVSYV; listed as Homo sapiens) [compound 350] | MEL
351 (VLDPMLDFY; listed as Homo sapiens) [compound 351] | HCC
352 (YPVVVAESMY; listed as Homo sapiens) [compound 352] | MEL
355 (MADRGEARL; listed as Homo sapiens) [compound 355] | AML
356 (NSENHILKY; listed as Homo sapiens) [compound 356] | GC, OSCAR
358 (YMSPDIALLY; listed as Homo sapiens) [compound 358] | GBM, HCC, NSCLCadeno
360 (RFDDINQEF; listed as Homo sapiens) [compound 360] | HNSCC
363 (LTDRDVSFY; listed as Homo sapiens) [compound 363] | HCC
364 (DTGYLQLYY; listed as Homo sapiens) [compound 364] | BRCA
